Values of other authors as cited in US20240390444A1, “COMPOSITIONS AND METHODS LOWERING GLYCEMIC RESPONSE TO IMPROVE SLEEP QUALITY AND/OR SUBSEQUENT BEHAVIOURAL OUTCOMES” (SOCIETE DES PRODUITS NESTLE S.A., priority 2021, published 2024).
For at least one compound, name, drawing or mass did not settle the structure.

Details: in vivo

For `C[C@H]1O[C@H](O[C@H]2[C@H](O)[C@@H](O)[C@@H](O[C@H]3[C@H](O)[C@@H](O)C(O)O[C@@H]3CO)O[C@@H]2CO)[C@H](O)[C@@H](O)[C@@H]1N[C@H]1C=C(CO)[C@@H](O)[C@H](O)[C@H]1O` (stereo partly shown) [acarbose], the “effect on glucose absorption and GLP-1 secretion” value is given as “delayed absorption and increased GLP-1 secretion”.
